Data taken from ChEMBL document CHEMBL3988442, “University of Dundee, Small-Polar-MMV Screening Library” (2021).

Chains of the proteins cited; added tags and fusions are not shown. Residues count along the entry.
UniProt Q8IDJ8, 1-583: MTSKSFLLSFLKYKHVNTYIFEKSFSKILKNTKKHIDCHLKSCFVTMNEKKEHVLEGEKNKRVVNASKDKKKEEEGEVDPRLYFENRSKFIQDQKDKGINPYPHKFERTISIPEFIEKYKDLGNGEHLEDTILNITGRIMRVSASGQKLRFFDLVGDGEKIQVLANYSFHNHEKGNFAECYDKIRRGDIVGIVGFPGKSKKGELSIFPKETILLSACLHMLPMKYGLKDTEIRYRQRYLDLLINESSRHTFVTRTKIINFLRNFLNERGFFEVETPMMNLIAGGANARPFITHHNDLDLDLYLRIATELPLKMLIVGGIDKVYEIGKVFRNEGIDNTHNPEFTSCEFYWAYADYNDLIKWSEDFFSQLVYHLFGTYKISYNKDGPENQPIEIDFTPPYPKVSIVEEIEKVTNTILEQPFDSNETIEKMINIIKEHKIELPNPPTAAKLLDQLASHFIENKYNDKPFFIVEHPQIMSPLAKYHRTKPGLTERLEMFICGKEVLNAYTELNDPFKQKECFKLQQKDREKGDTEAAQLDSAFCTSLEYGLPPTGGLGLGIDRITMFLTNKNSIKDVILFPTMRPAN
UniProt P9WFT3, whole entry: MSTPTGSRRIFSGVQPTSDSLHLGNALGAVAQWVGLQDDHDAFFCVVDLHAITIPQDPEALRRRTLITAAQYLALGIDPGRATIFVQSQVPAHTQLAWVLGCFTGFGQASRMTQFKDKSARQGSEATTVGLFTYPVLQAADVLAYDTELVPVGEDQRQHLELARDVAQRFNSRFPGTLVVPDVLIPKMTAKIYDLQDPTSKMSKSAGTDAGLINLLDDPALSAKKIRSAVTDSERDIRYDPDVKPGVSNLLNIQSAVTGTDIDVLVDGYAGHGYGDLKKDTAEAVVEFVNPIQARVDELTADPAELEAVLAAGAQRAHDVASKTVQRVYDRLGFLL

PfKRS1: 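Lysine-tRNA ligase, Plasmodium falciparum 3D7 (UniProt Q8IDJ8). Enzyme assay of the cytosolic lysyl-tRNA synthetase in 384-well plates, read by luminescence. Tested at 30 µM. Higher reads as stronger inhibition, judged from the few compounds that gave an IC50. Size under these conditions: about 69,000 compounds, about 49 of them at 50% or above in at least one test.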
MtTrpRS: 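Enzyme assay of tryptophanyl-tRNA synthetase; the read-out is not stated. Target: Tryptophan-tRNA ligase, Mycobacterium tuberculosis (UniProt P9WFT3). Compounds at 10 µM. Direction is not recorded; retested compounds ran higher, which suggests that high means inhibition. Of about 65,000 compounds tested this way, about 64 (0.098%) reached 50% or more in at least one test.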
Leishmania in macrophages: 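Cell assay of Leishmania donovani living inside macrophages; the read-out is not stated. Tested at 30 µM. Higher reads as stronger inhibition (inferred: compounds with an IC50 in retests scored well above the rest). Of about 69,000 compounds tested this way, about 1,000 (1.5%) reached 50% or more in at least one test.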

The filed quantity is “Percent Effect” (%).
The controls that fix the scale are not given in the record; negative values are as filed.
Compounds were drawn at random from those tested, without regard to their results.
Two or more numbers in one place are separate tests of the same structure; such repeats can differ widely.
A dash means the value is not listed here; it may have been measured.

Compound	PfKRS1	MtTrpRS	Leishmania in macrophages
CCCN1C(=O)[C@@H]2[C@@H](CCN2C(=O)COC)N(Cc2cccs2)C1=O	6.078	2.959	-
COc1ccc(CNC2CCCN(Cc3noc(C)n3)C2)cc1F (stereo unspecified)	4.927	-2.798	0.4218
O=C(CCNc1ncccn1)Nc1cc(C(F)(F)F)c[nH]c1=O	-0.4381	0.8708	-7.99
[H][C@@]12CN(Cc3cc4ccccc4o3)C[C@]1(C(=O)O)CN(CC1CC1)C2=O	-	-	10.9
Cc1cc(C)n(CC2CN(CC(=O)Nc3c(C)n[nH]c3C)CCO2)n1 (stereo unspecified)	5.367	-3.917	-23.66
COc1ncccc1CNc1cc(N2CCCC2CO)ncn1 (stereo unspecified)	2.724	2.798	7.515
CCS(=O)(=O)N1C[C@H]2CN(Cc3cccnc3)C(=O)[C@H]2C1	5.311	3.189	-
CN(Cc1ccc(Cl)s1)C(=O)Nc1ccc(N(C)C)nc1	4.598	-5.444	-1.233
CCOCC(=O)N1CCC(c2nccn2C)CC1	-4.237	5.094	1.776
CC(C)Oc1cccc(CNC(=O)N2CCC(N3CC=CC3)C2)c1 (stereo unspecified)	1.223	0.3285	-3.062
Clc1cccc(C(NCc2ncc[nH]2)c2ccccn2)c1 (stereo unspecified)	5.611	-8.876	22.44
Cc1ccccc1C(=O)N1CCC2(CC1)CC(c1cnn(C)c1)CO2 (stereo unspecified)	1.523	0.7819	15.68
Cc1cnc(N2CCCC(c3ccccc3)C2)nc1-c1ccnn1C (stereo unspecified)	0.9056	-6.197	26.71
Cc1ncnc(N2CCN(C(=O)C3CC4(CCNCC4)CN3)CC2)c1C (stereo unspecified)	0.4242	1.043	2.291
[H][C@]12CN(Cc3cnn(C)c3)C[C@@]1([H])OCCN(C(=O)c1cccn1C)C2	-	-	58.31
COC(=O)N1CCC2(CC1)N=C(CCC(C)C)NC2=O	4.751	2.999	18.9
CCOCc1cc(CN2CCn3c(CO)nnc3C2)ccc1OC	0.2688	-2.609	-
Cc1nc(C2CCCN2C(=O)CCc2ccccc2)ncc1C(N)=O (stereo unspecified)	1.635	-	2.84
CCc1nc(C2CCCN2C(=O)c2ccc3c(c2)nnn3C)no1 (stereo unspecified)	-0.8384	12.69	-9.057
Cc1nn(C)c(Cl)c1C1CCCN1Cc1cn2ccsc2n1 (stereo unspecified)	0.1501	-11.9	23.27
Cc1cc(C)n(CC2CCCN2C(=O)c2ccnc(N(C)C)c2)n1 (stereo unspecified)	1.49	5.016	-10.09
CC(C(=O)N(Cc1ccc(F)cc1)CC(F)(F)F)S(C)(=O)=O (stereo unspecified)	2.901	-2.341	-39.05
Cc1ncsc1CN1CCO[C@H]2[C@H](Oc3ccccn3)CC[C@@H]21	6.541	0.4882	-
CCc1nnc2n1CCN(C(=O)c1cc3ccccc3[nH]1)C2	0.6265	4.966	9.986
O=C(CC1CC1)N1CCC2(CCCN(c3ncccn3)C2)CC1	-0.2962	-3.108	0.2687
CC(C)[C@@H]1CN(Cc2c[nH]nc2-c2ccc(F)cc2)C[C@H]1NS(C)(=O)=O	5.415	2.318	8.552
COc1cccc(-n2nnc(C(=O)N3CCN(C)CC3C)c2C)c1 (stereo unspecified)	0.9378	0.6681	14.36
Cc1csc(N2CCN(Cc3cnc(C)s3)CC2C)n1 (stereo unspecified)	4.115	-0.3564	50.44
Cc1noc(C)c1CCCNC(=O)C1CCN(C(=O)C2CC2)CC1	-2.322	1.72	-2.423
Cn1nccc1CNC(=O)CCn1nc(C(F)(F)F)cc1C1CC1	2.555	-	-48.51
CCc1noc(C)c1C(=O)N1CCCC(n2nc(C)nc2C)C1 (stereo unspecified)	-0.6137	0.312	0.5352
C=C(C)CN1CCC(NC(=O)NCCc2ccc(N(C)C)cc2)CC1	9.16	-2.734	29.2
CS(=O)(=O)CCN1CCSCC1c1ccc(Cl)cc1 (stereo unspecified)	1.577	-2.545	-4.037
Cc1cc(C(=O)N2CCCCC2C)ccc1NCC(=O)N1CCOCC1 (stereo unspecified)	-5.924	1.039	15.41
O=C(NC1CC1)N1CCC2(CC1)CC(N1CCOCC1)c1ccccc12.O=C(O)C(F)(F)F (stereo unspecified)	-	-	26.58
CN(CCCNC(=O)N1CCCC1c1ccsc1)c1ccccn1 (stereo unspecified)	-3.258	0.8793	16.14
O=C(O)C(F)(F)F.O=C(O)C(F)(F)F.[H][C@@]12COC[C@]1(C(=O)NCCc1cccs1)CN(Cc1ccncc1)C2	-	-	15.32
CCN(C)CC1CCN(c2ncc(Br)cn2)C1 (stereo unspecified)	6.562	-1.48	-0.09328
O=C(CCC(=O)NCc1cccc(Br)c1)NCCN1CCCC1	2.583	-1.651	8.349
CCCc1nc(NCCCO)c2c(n1)c(C)nn2CC	1.015	3.618	3.921
CN(C)C(=O)[C@@H]1C[C@@H]2CCN(Cc3ccc4c(c3)OCO4)C[C@@H]2O1	-5.913	-1.438	-
CC(C)(NC(=O)c1cnc(C(C)(C)C)s1)C(N)=O	-0.3472	-4.714	-2.564
N#Cc1ccc(CN2CCCCC2Cn2cncn2)c(F)c1 (stereo unspecified)	0.1243	0.6744	35.13
O=C(c1ccc2[nH]nnc2c1)N1C[C@H](O)[C@]2(CCCO2)C1	-0.2733	-2.889	5.516
CC(C)(C)c1nnc2n1C(C(=O)N1CCOCC1)CC2 (stereo unspecified)	0	-9.075	19.3
Cc1cc(NCCS(C)(=O)=O)nc2cc3c(cc12)CCC3	1.605	-6.708	-11.04
Cc1nc(C2CCCN2CCc2ccccn2)no1 (stereo unspecified)	4.664	-2.519	13.11
O=C(O)C(F)(F)F.[H][C@@]12OCCN(c3ncccn3)[C@@]1([H])CC[C@H]2OCC1CC1	-	-	14.68
CCCn1ncc(C(=O)N2CCN(C3Cc4ccccc4C3)CC2)c1C	2.902	-6.121	19.74
CN(Cc1ccc(F)cc1)CC1(O)CCN(C(=O)c2cccs2)C1 (stereo unspecified)	6.026	-	-2.899 and 7.664
O=C(c1sccc1-n1cnnn1)N1CCCCC1	4.814	-6.708	17.67
O=C(CSCC1CC1)N1CCCN(c2ccc(F)cc2)CC1	4.611	6.265	12.43
CC(C)(C)C(=O)N1CCC(c2cnc(-c3cn[nH]c3)cn2)CC1	0.6076	-0.4569	-18.54
[H][C@@]12COC[C@]1(COCC1CC1)CN(S(=O)(=O)c1cccc(F)c1)C2	-	-	9.071 and -11
CN(Cc1ccc(Br)s1)Cn1nc(-c2ccccc2)oc1=O	6.475	-3.753	20.26
Cc1ccc(C(=O)NCc2ccc(N3CCCC(C(N)=O)C3)cc2)o1 (stereo unspecified)	2.899	2.556	18.67
Cc1nc(C)c(C(=O)OCCNc2ncccc2C#N)s1	7.604	-2.861	-13.6
Cc1cccc(C(C)C)c1NC(=O)NCCN(C(C)C)C(C)C	8.473	-1.497	20.81
COc1c(C2CCCN2Cc2cccc(C(N)=O)c2)c(C)nn1C (stereo unspecified)	0.4867	-8.367	8.778
Cc1n[nH]c2c1C(c1ccc3c(c1)OCCO3)SCC(=O)N2 (stereo unspecified)	1.379	-1.4	29.88
Cc1ccc(N2CCC3(CCN(C(=O)c4ccnnc4)CC3)CC2)nn1	1.472	0.9213	-
COCCOc1ccc(S(=O)(=O)Nc2cccnc2O)cc1C	4.131	-1.751	22.36
CCOc1cc(C)nc(N2CCN(C(=O)CC)CC2)n1	-0.4484	-4.568	9.44
[H][C@]12CC[C@]([H])(CN(C3Cc4ccccc4C3)C1)N(C(=O)c1ccc[nH]1)C2	-	-	20.27
O=C(c1cc(C2CCCCC2)no1)N1C[C@H]2C[C@H](O)C[C@H]2C1	2.165	0.2038	-
CCc1cc(CNC(=O)N(C2CC2)C(C)c2ccco2)on1 (stereo unspecified)	0.4746	7.53	-7.211
[H][C@@]12CC(=O)N(CC)[C@@]1([H])CCN2S(=O)(=O)Cc1ccc(C)cc1	-	-	28.32
CCCn1nccc1-c1nccnc1CC1CCN(C(C)=O)C1 (stereo unspecified)	-0.89	-5.708	5.457
O=C(c1cnccn1)N1CCc2onc(Cn3cccn3)c2C1	5.796	2.092	27.05
Cc1cccc(-c2noc(Cn3nc(C(N)=O)ccc3=O)n2)c1	-4.178	-5.773	24.3
COC1CCN(C(=O)COC(C)=O)CC(=O)N(C)c2ccccc21 (stereo unspecified)	5.578	-	3.926